Laboratory results from PubChem BioAssay AID2685 (National Center for Advancing Translational Sciences (NCATS), 2010).
The other results are listed elsewhere or left out. The main result of the screen is listed elsewhere. These columns were measured beside it and carry no call. Most of these compounds were active or inconclusive in the main read-out, so they are no random draw. The note in brackets gives the kind of curve behind each potency; many fits are weak.

Experiment: qHTS Assay for Lipid Storage Modulators in Drosophila S3 Cells;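 for cell number change: cells counted by Cell Tracker Red CMTPX staining in the red channel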
Conditions: BODIPY lipid droplet fluorescence, 18-24 h; for cell number change: measured here: cell count max response, cells fed with added oleic acid
How it was run: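 Drosophila S3 cells got compounds at several concentrations plus oleic acid (400 uM solution). Laser-scanning cytometry with 488 nm excitation read lipid droplets at 500-530 nm and cells at 575-640 nm. Percent activity was relative to 20 uM Triacsin C.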

[1] = measured here: lipid fluorescence (Fed channel) AC50, cells fed with added oleic acid
[2] = measured here: cell number channel AC50, cells fed with added oleic acid

| SMILES | cell number change | AC50 [1] | AC50 [2] |
| --- | --- | --- | --- |
| Cc1ccc(S(=O)(=O)N2CCC(C(=O)OCC(=O)N(C)c3ccccc3)CC2)cc1C | -0.641% | 25.9 µM [rising, partial curve] | – |
| C=CCn1c(C)cc(C(=O)Cn2nc(C(=O)O)c3ccccc3c2=O)c1C | -30.8% | – | 0.092 µM [falling, full curve] |
| O=C1/C(=C\c2ccncc2)CCc2ccccc21 | 12.1% | 0.0651 µM [falling, full curve, poor fit] | – |
| O=C(CNC(=O)c1cccc(F)c1)OCCOc1cccc(Cl)c1 | -4.04% | – | – |
| CC1CN(S(=O)(=O)c2cccc(C(=O)NCCCn3ccnc3)c2)CC(C)O1 (stereo not given) | 109% | 0.58 µM [rising, single point] | 16.4 µM [rising, partial curve, poor fit] |
| COC(=O)C(NC(=O)CCc1nnc2ccc(N3CCC(C)CC3)nn12)C(C)C (stereo not given) | 15.8% | 0.58 µM [falling, full curve, poor fit] | – |
| CCCCC1CCC(C(=O)N(CC(C)C)c2c(N)n(Cc3ccccc3)c(=O)[nH]c2=O)CC1 (stereo not given) | -49.1% | 0.206 µM [falling, full curve, poor fit] | 0.92 µM [falling, full curve] |
| CCCCS(=O)CC(O)COc1ccc(C(C)(C)C)cc1 (stereo not given) | -11.3% | 29.1 µM [rising, single point] | – |
| COc1cccc(CN2CC(C(=O)N3CCN(c4ccc(Cl)cc4)CC3)CCC2=O)c1 (stereo not given) | 24.9% | – | – |
| COc1ccc(C(=O)N2CCCC(CCC(=O)N3CCN(c4ccccn4)CC3)C2)cc1 (stereo not given) | – | 29.1 µM [falling, single point] | – |
| CCn1cc(CN2CCC(n3nccc3NC(=O)CCCc3ccccc3)CC2)cn1 | -1.39% | – | – |
| COc1cc2c(cc1OC)C(c1ccc(Br)cc1)NC(=O)C2 (stereo not given) | 42.8% | 29.1 µM [rising, single point] | 10.3 µM [rising, partial curve] |
| O=[N+]([O-])c1ccccc1/C=N/N1CCN(c2ccncc2S(=O)(=O)N2CCCCC2)CC1 | -27.4% | – | – |
| Cc1nn(CCOc2ccccc2)c(=O)n1-c1ccccc1F | 26.5% | 29.1 µM [rising, single point] | – |
| COc1ccccc1NC(=O)C1=C(C)Nc2nnnn2C1c1cccc(C)c1 (stereo not given) | – | 0.103 µM [falling, single point] | – |
| CN(C)S(=O)(=O)c1cccn1-c1ncc(C(F)(F)F)cc1Cl | – | 20.6 µM [rising, partial curve] | – |
| CN1CCN(c2nc3c(c(=O)n(C)c(=O)n3C)n2Cc2ccc(F)cc2)CC1 | -4.67% | 11.6 µM [rising, single point] | – |

Taken from above.
Value for `C=CCn1c(C)cc(C(=O)Cn2nc(C(=O)O)c3ccccc3c2=O)c1C` under AC50 [2]: 0.092 µM [falling, full curve]
Value for `CCCCC1CCC(C(=O)N(CC(C)C)c2c(N)n(Cc3ccccc3)c(=O)[nH]c2=O)CC1` (stereo not given) under AC50 [1]: 0.206 µM [falling, full curve, poor fit]
